According to PMC9971051:
Results are given in words; binding and its absence hold for the method and conditions named. Binding seen in cells or lysates may run through a third protein. Some results given as binding are weak or reduced against the parent protein; the word gives no strength.

Amino acid sequences for entries named in this document (tags omitted).
UniProt P32243: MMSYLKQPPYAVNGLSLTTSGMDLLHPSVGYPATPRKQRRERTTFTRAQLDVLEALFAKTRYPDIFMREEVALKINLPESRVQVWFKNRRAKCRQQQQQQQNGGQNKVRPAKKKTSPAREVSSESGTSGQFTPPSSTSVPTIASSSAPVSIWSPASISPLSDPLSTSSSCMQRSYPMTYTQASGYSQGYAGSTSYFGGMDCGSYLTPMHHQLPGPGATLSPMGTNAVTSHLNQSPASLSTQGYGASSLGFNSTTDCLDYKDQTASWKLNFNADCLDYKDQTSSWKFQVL
UniProt O94901: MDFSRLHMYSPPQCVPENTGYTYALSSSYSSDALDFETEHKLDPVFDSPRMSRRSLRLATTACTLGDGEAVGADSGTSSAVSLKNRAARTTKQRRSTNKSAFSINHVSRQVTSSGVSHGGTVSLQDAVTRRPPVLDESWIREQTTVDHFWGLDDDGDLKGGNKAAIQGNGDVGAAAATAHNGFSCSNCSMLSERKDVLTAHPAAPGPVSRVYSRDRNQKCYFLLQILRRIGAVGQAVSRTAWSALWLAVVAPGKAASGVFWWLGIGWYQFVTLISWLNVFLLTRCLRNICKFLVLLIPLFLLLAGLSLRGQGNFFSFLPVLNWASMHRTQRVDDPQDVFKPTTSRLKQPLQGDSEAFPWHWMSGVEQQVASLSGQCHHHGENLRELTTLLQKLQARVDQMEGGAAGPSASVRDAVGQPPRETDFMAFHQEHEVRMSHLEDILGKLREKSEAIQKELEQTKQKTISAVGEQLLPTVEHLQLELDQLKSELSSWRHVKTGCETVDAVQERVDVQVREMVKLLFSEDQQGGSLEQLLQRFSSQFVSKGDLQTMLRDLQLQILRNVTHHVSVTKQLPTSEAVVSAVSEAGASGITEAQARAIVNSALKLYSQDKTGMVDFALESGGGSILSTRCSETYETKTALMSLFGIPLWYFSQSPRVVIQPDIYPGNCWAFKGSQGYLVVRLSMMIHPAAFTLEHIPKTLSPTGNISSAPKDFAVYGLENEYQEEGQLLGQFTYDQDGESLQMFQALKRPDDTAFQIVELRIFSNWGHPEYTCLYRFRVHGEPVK

Target: V5-tagged human orthodenticle homeobox 2 (OTX2) (human) (UniProt P32243)
Test: co-IP; V5-OTX2 co-transfected into HeLa cells together with mRFP-tagged LINC components; co-immunoprecipitation and WB with indicated antibodies

mRFP-tagged SUN1 (Sad1 and UNC84 domain containing 1) (from UniProt O94901 1-785)
binding: binds
